Experimental data as given in patent publication US8580258.
No constants are given. Whether binding was seen depends on the method and setting. Some binding calls cover weakened binding; strength is not graded here. Sequences can lack the tags named with a protein.

By UniProt entry, the sequences of proteins in these tests, tags left out. Residues count along the entry.
UniProt P32004, residues 20-1120: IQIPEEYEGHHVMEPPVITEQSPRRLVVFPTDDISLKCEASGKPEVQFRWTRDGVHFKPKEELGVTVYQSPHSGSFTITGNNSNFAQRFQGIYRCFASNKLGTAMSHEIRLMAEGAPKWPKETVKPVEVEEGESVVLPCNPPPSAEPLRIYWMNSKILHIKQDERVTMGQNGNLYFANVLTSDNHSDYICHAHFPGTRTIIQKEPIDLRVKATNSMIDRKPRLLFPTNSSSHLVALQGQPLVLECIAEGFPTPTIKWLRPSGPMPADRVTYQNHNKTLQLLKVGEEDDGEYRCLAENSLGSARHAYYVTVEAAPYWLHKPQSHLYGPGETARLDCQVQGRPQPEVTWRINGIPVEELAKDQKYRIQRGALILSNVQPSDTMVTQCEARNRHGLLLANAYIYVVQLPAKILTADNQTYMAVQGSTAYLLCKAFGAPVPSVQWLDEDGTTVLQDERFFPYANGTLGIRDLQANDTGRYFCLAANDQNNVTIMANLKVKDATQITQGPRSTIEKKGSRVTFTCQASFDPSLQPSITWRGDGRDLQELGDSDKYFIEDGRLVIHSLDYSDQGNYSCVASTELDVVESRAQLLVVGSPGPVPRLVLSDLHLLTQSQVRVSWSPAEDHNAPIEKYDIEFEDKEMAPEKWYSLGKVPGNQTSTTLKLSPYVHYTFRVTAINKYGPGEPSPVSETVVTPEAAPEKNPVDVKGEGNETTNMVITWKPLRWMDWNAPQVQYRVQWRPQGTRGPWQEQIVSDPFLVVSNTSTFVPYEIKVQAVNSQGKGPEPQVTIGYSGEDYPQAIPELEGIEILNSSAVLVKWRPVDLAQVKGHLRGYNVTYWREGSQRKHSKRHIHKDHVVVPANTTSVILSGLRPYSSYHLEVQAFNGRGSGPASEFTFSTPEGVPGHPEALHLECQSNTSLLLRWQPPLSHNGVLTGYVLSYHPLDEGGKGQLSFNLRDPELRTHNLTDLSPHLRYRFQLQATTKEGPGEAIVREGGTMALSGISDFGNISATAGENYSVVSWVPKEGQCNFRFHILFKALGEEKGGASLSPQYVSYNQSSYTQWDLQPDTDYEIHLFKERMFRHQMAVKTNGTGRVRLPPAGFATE

Experiments:
[1] = target: recombinant L1-Fc fusion protein (human L1-Fc protein comprising the ectodomain of L1) (human) (UniProt P32004); assay: ELISA, plate coated with L1-Fc at 5 µg/ml, bacterial supernatants of 8 clones, anti-human kappa HRP conjugate, TMB
[2] = target: recombinant L1-Fc fusion protein (human L1-Fc protein comprising the ectodomain of L1) (human) (UniProt P32004); assay: ELISA, L1-Fc coated at 5 ug/ml, bacterial supernatant, anti-human kappa HRP
[3] = target: recombinant L1-Fc fusion protein (human L1-Fc protein comprising the ectodomain of L1) (human) (UniProt P32004); assay: ELISA, L1-Fc coated, bacterial supernatant, anti-human kappa HRP

Measured: binding

B1: L1-9.3Hu single chain antibody (humanized L1-9.3Hu scFv fused to human c kappa constant region) (scFv)
scFv: DIQMTQSPSSLSASVGDRVTITCRASQDISNYLNWYQQKPGKAPKLLIYYTSRLHSGVPSRFSGSGSGTDYTFTISSLQPEDFATYFCQQGNTLPWTFGGGTKLEIKRTSGPGDGGKGGPGKGPGGEGTKGTGPGGEVQLVQSGGGLVQSGGSLRLSCRASGYTFTRYWMLWVRQRPGHGLEWVGEINPRNDRTNYNEKFKTRFTISVDRSKSTAYLQMDSLRAEDTAVYFCALGGGYAMDYWGQGTLVTVSSGGAAAAPSVFIFPPSDEQLKSGTASVVCLLNNFYPREAKVQWKVDNALQSGNSQESVTEQDSKDSTYSLSSTLTLSKADYEKHKVYACEVTHQGLSSPVTKSFNRGESHHHHHH
binds: all assays above

B2: L1-9.3Hu3 single chain antibody (humanized L1-9.3Hu3 scFv fused to human c kappa constant region) (scFv)
scFv: DIQMTQSPSSLSASVGDRVTITCRASQDISNYLNWYQQKPGKAPKLLIYYTSRLHSGVPSRFSGSGSGTDYTLTISSLQPEDFATYFCQQGNTLPWTFGGGTKLEIKRTSGPGDGGKGGPGKGPGGEGTKGTGPGGEVQLVQSGGGLVQSGGSLRLSCRASGYTFTRYWMLWVRQRPGKGLEWVAEINPRNDRTNYNEKFKTRFTISVDRSKNTLYLQMDSLRAEDTAVYFCALGGGYAMDYWGQGTLVTVSSGGAAAAPSVFIFPPSDEQLKSGTASVVCLLNNFYPREAKVQWKVDNALQSGNSQESVTEQDSKDSTYSLSSTLTLSKADYEKHKVYACEVTHQGLSSPVTKSFNRGESHHHHHH
binds: all assays above

B3: L1-9.3 single chain antibody (murine L1-9.3 scFv fused to human c kappa constant region) (scFv)
scFv: DIQMTQTTSSLSAFLGDRVTISCRASQDISNYLNWYQQKPDGTVKLLIYYTSRLHSGVPSRFSGSGSGTDYSLTISNLEQEDFATYFCQQGNTLPWTFGGGTKLEIKRTSGPGDGGKGGPGKGPGGEGTKGTGPGGQVQLQQPGAELVKSGASVNLSCRASGYTFTRYWMLWVRQRPGHGLEWVGEINPRNDRTNYNEKFKTKATLTVDRSSSTAYMQLTSLTSEDSAVYFCALGGGYAMDYWGQGTSVTVSSGGAAAAPSVFIFPPSDEQLKSGTASVVCLLNNFYPREAKVQWKVDNALQSGNSQESVTEQDSKDSTYSLSSTLTLSKADYEKHKVYACEVTHQGLSSPVTKSFNRGESHHHHHH
binds: all assays above
